No constants are given. Whether binding was seen depends on the method and setting. In cells and extracts the contact can be indirect. Some binding calls cover weakened binding; strength is not graded here.
Molecular target: T1, UHRF1 (ubiquitin-like containing PHD and RING fingers domain 1) (human (endogenous in BeWo)) (UniProt Q96T88)
T1 sequence: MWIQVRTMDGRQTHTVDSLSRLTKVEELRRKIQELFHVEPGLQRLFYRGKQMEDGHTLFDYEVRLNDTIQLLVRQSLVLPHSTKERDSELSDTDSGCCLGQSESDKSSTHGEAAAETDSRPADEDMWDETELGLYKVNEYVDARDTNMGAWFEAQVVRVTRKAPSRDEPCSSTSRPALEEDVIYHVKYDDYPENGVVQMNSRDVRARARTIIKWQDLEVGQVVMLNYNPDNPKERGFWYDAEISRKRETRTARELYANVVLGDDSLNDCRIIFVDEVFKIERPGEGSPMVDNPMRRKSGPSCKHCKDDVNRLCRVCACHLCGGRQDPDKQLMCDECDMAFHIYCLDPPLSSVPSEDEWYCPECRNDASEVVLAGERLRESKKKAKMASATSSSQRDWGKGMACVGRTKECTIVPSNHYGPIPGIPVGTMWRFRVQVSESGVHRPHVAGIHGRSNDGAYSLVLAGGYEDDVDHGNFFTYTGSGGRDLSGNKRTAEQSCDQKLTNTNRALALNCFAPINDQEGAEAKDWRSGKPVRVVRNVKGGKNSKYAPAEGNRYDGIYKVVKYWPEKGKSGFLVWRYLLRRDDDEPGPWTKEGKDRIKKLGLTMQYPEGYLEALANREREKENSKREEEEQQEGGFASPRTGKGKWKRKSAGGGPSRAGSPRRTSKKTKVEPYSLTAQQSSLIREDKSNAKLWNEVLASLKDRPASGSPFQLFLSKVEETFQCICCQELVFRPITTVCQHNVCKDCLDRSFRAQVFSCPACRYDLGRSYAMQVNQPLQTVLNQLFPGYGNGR
Assay: co-IP; validation of the UHRF1 partners found by mass spectrometry by immunoprecipitation; data not shown

Protein sequences, listed by entry. Tags and fused reporters are not part of them.
UniProt Q93009: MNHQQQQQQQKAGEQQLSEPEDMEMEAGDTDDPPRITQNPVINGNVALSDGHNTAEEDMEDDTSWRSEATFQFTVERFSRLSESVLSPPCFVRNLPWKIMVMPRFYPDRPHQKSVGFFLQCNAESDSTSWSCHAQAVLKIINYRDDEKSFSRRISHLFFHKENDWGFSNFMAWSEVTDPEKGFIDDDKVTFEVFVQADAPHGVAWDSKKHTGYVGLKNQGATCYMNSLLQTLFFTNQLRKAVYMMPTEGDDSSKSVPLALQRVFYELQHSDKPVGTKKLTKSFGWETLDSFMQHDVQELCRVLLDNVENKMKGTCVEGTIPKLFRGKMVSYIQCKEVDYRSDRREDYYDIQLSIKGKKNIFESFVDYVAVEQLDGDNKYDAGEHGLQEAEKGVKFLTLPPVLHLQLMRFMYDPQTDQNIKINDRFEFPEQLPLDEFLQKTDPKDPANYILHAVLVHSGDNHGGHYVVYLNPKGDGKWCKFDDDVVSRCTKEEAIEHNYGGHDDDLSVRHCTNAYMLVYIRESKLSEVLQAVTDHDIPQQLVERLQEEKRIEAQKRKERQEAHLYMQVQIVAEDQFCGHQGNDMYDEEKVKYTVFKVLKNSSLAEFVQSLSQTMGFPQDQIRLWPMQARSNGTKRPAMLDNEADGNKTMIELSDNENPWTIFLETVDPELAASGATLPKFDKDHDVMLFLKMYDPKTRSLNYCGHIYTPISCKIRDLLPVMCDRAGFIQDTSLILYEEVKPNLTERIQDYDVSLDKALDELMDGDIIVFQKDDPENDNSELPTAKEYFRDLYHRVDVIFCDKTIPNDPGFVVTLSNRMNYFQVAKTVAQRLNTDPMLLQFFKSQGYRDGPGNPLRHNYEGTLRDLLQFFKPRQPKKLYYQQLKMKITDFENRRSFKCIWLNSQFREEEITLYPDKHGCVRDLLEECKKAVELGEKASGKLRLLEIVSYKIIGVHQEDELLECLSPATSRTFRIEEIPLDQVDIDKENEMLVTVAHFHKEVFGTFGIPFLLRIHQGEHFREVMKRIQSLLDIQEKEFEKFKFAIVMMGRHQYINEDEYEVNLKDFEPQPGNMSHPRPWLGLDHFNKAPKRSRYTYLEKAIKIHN
UniProt P83916: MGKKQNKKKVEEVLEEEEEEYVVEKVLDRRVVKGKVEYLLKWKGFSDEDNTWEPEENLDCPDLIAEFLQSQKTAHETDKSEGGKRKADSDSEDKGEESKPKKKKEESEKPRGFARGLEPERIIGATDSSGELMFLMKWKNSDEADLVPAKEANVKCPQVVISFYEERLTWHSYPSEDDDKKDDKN
UniProt P12004: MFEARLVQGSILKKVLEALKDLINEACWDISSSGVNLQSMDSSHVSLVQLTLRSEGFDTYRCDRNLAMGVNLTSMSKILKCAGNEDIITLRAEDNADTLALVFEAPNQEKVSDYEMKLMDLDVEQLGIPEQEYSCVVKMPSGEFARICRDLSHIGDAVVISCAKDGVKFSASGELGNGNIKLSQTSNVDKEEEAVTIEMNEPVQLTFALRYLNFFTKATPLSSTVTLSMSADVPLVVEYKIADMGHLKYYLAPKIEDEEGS
UniProt Q92769: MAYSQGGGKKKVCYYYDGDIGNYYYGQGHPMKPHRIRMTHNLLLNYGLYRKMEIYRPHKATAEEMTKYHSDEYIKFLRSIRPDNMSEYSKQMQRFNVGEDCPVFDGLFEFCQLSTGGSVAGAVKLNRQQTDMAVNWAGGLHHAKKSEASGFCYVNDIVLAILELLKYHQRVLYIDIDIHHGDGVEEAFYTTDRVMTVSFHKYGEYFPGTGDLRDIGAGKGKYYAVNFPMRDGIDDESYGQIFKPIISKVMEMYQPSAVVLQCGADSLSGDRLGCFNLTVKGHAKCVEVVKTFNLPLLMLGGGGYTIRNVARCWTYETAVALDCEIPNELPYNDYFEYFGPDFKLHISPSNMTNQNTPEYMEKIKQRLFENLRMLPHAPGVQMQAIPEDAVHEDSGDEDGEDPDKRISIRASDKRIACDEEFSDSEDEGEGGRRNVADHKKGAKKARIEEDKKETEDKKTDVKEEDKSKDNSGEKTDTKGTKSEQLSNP

Row | binding | Substance
1 | binds | USP7 (from UniProt Q93009 1-1102)
2 | binds | heterochromatin protein 1 (HP1β) (from UniProt P83916 1-185)
3 | binds | PCNA (from UniProt P12004 1-261)
4 | binds | HDAC2 (from UniProt Q92769 1-488)
